Measurements published in PubChem BioAssay AID588590 (National Center for Advancing Translational Sciences (NCATS), 2011).
Values joined by “and” are separate entries in the source; they are usually repeats but may differ in a detail not shown here. Equal values may be shown once. Among all 390,000 compounds or so, about 4,000 (1%) were called active. Inconclusive means that the source gave no clear call. Such entries were picked first, then a sample of the others. Calls follow the shape of the dose curve; as a rule, active = well fitted inhibition curve with a large enough effect; inconclusive = small, poorly fitted or top-dose-only effect, or another doubt; inactive = no such curve, though single readings can be large or run the other way. A potency beside an inconclusive call is a rough fit, not a confirmed value.

The chains behind the UniProt entries cited, without tags or fusion partners. Where a name states a change or a piece, a line headed by the entry shows the natural chain unless it says otherwise.
UniProt Q9UNA4: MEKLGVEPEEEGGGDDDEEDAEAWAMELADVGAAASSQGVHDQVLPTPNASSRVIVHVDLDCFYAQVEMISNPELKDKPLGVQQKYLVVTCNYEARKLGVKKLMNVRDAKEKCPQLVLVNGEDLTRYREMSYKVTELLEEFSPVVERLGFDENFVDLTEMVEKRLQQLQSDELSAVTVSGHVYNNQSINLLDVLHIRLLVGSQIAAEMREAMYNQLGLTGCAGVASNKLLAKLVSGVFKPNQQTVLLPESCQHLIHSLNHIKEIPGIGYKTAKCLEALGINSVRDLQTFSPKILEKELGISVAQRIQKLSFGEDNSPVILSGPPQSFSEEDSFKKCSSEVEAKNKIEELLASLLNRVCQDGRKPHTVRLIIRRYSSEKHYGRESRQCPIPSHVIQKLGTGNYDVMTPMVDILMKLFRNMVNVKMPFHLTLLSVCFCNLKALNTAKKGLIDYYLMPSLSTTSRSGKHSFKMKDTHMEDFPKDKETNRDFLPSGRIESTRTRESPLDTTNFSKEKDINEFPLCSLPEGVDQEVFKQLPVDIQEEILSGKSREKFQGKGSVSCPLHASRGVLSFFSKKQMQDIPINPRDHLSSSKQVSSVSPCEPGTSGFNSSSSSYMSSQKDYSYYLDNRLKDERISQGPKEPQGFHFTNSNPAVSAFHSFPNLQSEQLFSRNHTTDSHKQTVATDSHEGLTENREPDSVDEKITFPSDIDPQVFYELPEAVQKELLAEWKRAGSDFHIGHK

biological target: DNA polymerase iota (Homo sapiens) (UniProt Q9UNA4); assay: qHTS for Inhibitors of Polymerase Iota; conditions: Pol iota fluorescent replication assay, 10 min; series mostly up to 115 µM; activity, negative = inhibition: at the top concentration
How it was run: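 Pol iota at 10 nM preincubated 15 min with compounds at room temperature; reaction started with fluorescent substrate, 50 nM final. Fluorescence read kinetically at 0 and 10 min; buffer-only wells as negative control.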
Potency is read from the fitted curve at half-maximal effect.

Row | SMILES | Potency | activity, negative = inhibition
1 | CC1CCCC(C)N1CCCNC(=O)c1ccc2nc(N3CCOCC3)sc2c1 (stereo not given) | inconclusive: 3.55 µM [inhibitor, partial curve, poor fit] | 
2 | COc1ccc(S(=O)(=O)N2Cc3ccccc3CC2C(=O)O)cc1 (stereo not given) | inconclusive: 20 µM [inhibitor, full curve, poor fit] | 
3 | Cc1ccc(/C=C(/C#N)C(=O)NC(=O)Oc2ccccc2)cc1 |  | inactive: 4.89%
4 | CNC(=O)COC(=O)c1cc(-c2ccc(OC)cc2)nc2ccccc12 | inconclusive: 89.1 µM [inhibitor, single point] | 
5 | CCCCCC(=O)N1CCN(CCN=CC2=C(O)CC(c3ccco3)CC2=O)CC1 (stereo not given) | inconclusive: 2.51 µM [inhibitor, full curve, poor fit] | 
6 | CCOP(=O)(c1ccccc1)C1(C#N)CC1 (stereo not given) |  | inactive: 33%
7 | O=[N+]([O-])c1ccc(Sc2cccc[n+]2[O-])c2nonc12 | active: 3.55 µM | 
8 | COc1ccc(CNc2nc(NCc3ccc(OC)cc3)c3ncn(C4CCCC4)c3n2)cc1 | inconclusive: 35.5 µM [inhibitor, partial curve, poor fit] | 
9 | CCC(CO)Oc1cc(NCc2ccc(C(=O)O)cc2)c2ncn(C(C)C)c2c1 (stereo not given) | inconclusive: 39.8 µM [inhibitor, partial curve, poor fit] | 
10 | CC(=O)NS(=O)(=O)c1ccc(NC(=O)c2cc(-c3ccc(C)cc3)nc3ccccc23)cc1 |  | inactive: 111%
11 | CCN(CC(=O)Nc1c(F)cccc1F)C(=O)C1CCN(S(=O)(=O)c2ccccc2C(=O)OC)CC1 | inconclusive: 0.708 µM [inhibitor, full curve, poor fit] | 
12 | Oc1ccc(/C=N/Nc2cc(N3CCOCC3)nc(N3CCOCC3)n2)cc1 | inconclusive: 35.5 µM [inhibitor, partial curve, poor fit] | 
13 | O=C(CCSCc1cccc(Cl)c1)NC1CCCC1 | inconclusive: 89.1 µM [inhibitor, partial curve, poor fit] | 
14 | Cn1c(SCC(=O)NCc2ccco2)nnc1-c1ccc(S(=O)(=O)N2CCOCC2)cc1 | active: 100 µM | 
15 | CCN(CC)C(=O)CSc1nc2c(c(=O)n(C)c(=O)n2C)n1Cc1ccccc1 | inconclusive: 5.01 µM [inhibitor, full curve, poor fit] | 
16 | CCCc1c(O)nc(SCC(=O)NCc2ccco2)[nH]c1=O | inconclusive: 56.2 µM [inhibitor, partial curve, poor fit] | 
17 | C=CCNc1oc(-c2cccc(Cl)c2)nc1C#N | inconclusive: 70.8 µM [inhibitor, single point] | 
18 | Cc1nc2ccc3nc(NC(=O)C4COc5ccccc5O4)sc3c2s1 (stereo not given) | inconclusive: 89.1 µM [inhibitor, partial curve, poor fit] | 
19 | O=C1CCc2cc(S(=O)(=O)Nc3cccc(F)c3)cc3c2N1CC3 | inconclusive: 89.1 µM [inhibitor, single point] | 
20 | CN(c1ccc(C(=O)N2CCCCC2)cc1)S(C)(=O)=O | inconclusive: 79.4 µM [inhibitor, partial curve, poor fit] | 
21 | CSc1ccccc1C(=O)Nc1nc2ccccc2[nH]1 |  | inactive: 114%
22 | COc1ccc(C(=O)Nc2cccc(NC(C)=O)c2)cc1OC | inconclusive: 100 µM [inhibitor, partial curve, poor fit] | 

Row | SMILES | Potency | activity, negative = inhibition
23 | Clc1ccc(/C=C/c2ncc[nH]2)c(Cl)c1 | inconclusive: 2.51 µM [inhibitor, full curve, poor fit] | 
24 | CCOc1ccc2nc3cc(N=Nc4ccc(N)nc4N)ccc3c(N)c2c1 | inconclusive: 3.55 µM [inhibitor, full curve, poor fit] | 
25 | CCCCCCCC(=O)N/N=C/c1ccc([N+](=O)[O-])o1 | inconclusive: 0.631 µM [inhibitor, full curve, poor fit] | 
26 | CCOc1ccc(-n2nnnc2SCC(=O)Nc2ccc(NC(C)=O)cc2)cc1 | inconclusive: 56.2 µM [inhibitor, single point] | 
27 | CS(=O)(=O)N1N=C(c2cccs2)CC1c1ccco1 (stereo not given) | inconclusive: 20 µM [inhibitor, single point] | 
28 | Cc1cc2ccccc2n1CCNC(=O)COc1ccc2ccccc2c1 | inconclusive: 11.2 µM [inhibitor, partial curve, poor fit] | 
29 | CC1(C)C(=O)Nc2ccccc2N1C(=O)COC(=O)c1cccnc1Cl | inconclusive: 50.1 µM [inhibitor, partial curve, poor fit] | 
30 | Cc1ccc2c(CC(=O)NNC(=O)c3ccccc3O)coc2c1 | active: 44.7 µM | 
31 | N#CC1=C(N)Oc2n[nH]c(-c3cccs3)c2C1C1C=CCCC1 (stereo not given) |  | inactive: 2.83%
32 | O=C(NCc1ccccn1)C1(C(F)(F)F)C/C(=C\CCO)CCCO1 (stereo not given) | inactive | 
33 | COc1cc(/C=C2\SC(=S)N(c3cccnc3)C2=O)ccc1O | inconclusive: 3.16 µM [inhibitor, full curve, poor fit] | 
34 | O=C(N/N=C/C(Br)=C\c1ccccc1)c1ccc2nc[nH]c2c1 | inconclusive: 15.8 µM [inhibitor, full curve, poor fit] | 
35 | COc1ccccc1Cc1nc2ccccc2nc1SCC(=O)N1CCCCC1 | inconclusive: 79.4 µM [inhibitor, partial curve, poor fit] | 
36 | C=C1c2cccc(O)c2C(O)=C2C(=O)[C@]3(O)C(O)=C(C(N)=O)C(=O)[C@@H](N(C)C)[C@@H]3[C@@H](O)[C@H]12 | active: 2.82 µM | 
37 | CCC(=O)c1ccc(Oc2ccc(C(=O)c3ccc(C)cc3)cc2[N+](=O)[O-])cc1 |  | inactive: 15.1%
38 | NC(=O)C1CCN(C(=S)NC2CC3C=CC2C3)CC1 (stereo not given) | inconclusive: 79.4 µM [inhibitor, single point] | 
39 | O=C(O)c1cccc(NC2=C(n3nnc4ccccc43)C(=O)c3ccccc3C2=O)c1 | inconclusive: 12.6 µM [inhibitor, full curve] | 
40 | CN(C)c1ccc(/C=C/c2ccnc3ccc(O)cc23)cc1 | inconclusive: 3.98 µM [inhibitor, full curve, poor fit] | 
41 | O=C(COc1ccc2ccc(=O)oc2c1)NC1CCCCC1 |  | inactive: 10.8%
42 | CCc1ccc(S(=O)(=O)N/N=C\c2ccc([N+](=O)[O-])o2)cc1 | inconclusive: 35.5 µM [inhibitor, partial curve] | 
43 | CCOC(=O)c1cnn2c(N)c(C#N)cnc12 |  | inactive: -7.33%
44 | CC1=C(C(=O)OCC2CCCO2)C(c2ccncc2)C2=C(CC(C)(C)CC2=O)N1 (stereo not given) |  | inactive: 12.9%

Row | SMILES | Potency | activity, negative = inhibition
45 | CCN1C(=O)C(C(=O)c2ccccc2)SC1=S (stereo not given) | inconclusive: 39.8 µM [inhibitor, single point] | 
46 | O=C(COC(=O)CCC(=O)c1ccccc1)NCCc1ccccc1 | inconclusive: 89.1 µM [inhibitor, partial curve, poor fit] | 
47 | CC1(C)Cc2c(sc3c2c(=N)n(Cc2ccco2)c(=O)n3CC(=O)Nc2cccc(Cl)c2)CO1 | inconclusive: 15.8 µM [inhibitor, full curve, poor fit] | 
48 | Cc1ccc(NC(=O)CN(C)C(=O)c2cccc(Br)c2)cc1 |  | inactive: 13.4%
49 | N#C/C(=C\c1ccc(O)c(O)c1)C(=O)NCCCc1ccccc1 | inconclusive: 28.2 µM [inhibitor, single point] and inconclusive: 50.1 µM [inhibitor, partial curve, poor fit] | 
50 | Cc1cc(N/N=C/c2ccc(O)cc2)c2cccc(C)c2n1 |  | inactive: -24.2%
51 | Cc1sc2nc(SCc3ccc(C(=O)O)cc3)n(Cc3ccco3)c(=O)c2c1C | inconclusive: 31.6 µM [inhibitor, single point] | 
52 | C#CCOCCOCCOCCNc1nc(N2CCN(C(=O)[C@H](CO)n3cc([C@@H](N)C(C)C)nn3)CC2)nc(N2CCN(C(=O)[C@H](CO)n3cc([C@@H](N)C(C)C)nn3)CC2)n1 | inconclusive: 25.1 µM [inhibitor, single point] | 
53 | Cc1ccc(C(C(=O)NC2CCCCC2)N(C)Cc2ccccc2)cc1 (stereo not given) |  | inactive: 6.01%
54 | CC(=O)N1c2ccc(S(=O)(=O)NCCC(=O)N3CCC(C)CC3)cc2CC1C (stereo not given) |  | inactive: 4.48%
55 | Cn1cc(-c2cc3n(n2)CCC(=O)N3CCCC(=O)NCc2ccc(F)cc2)c2ccccc21 |  | inactive: 6.26%
56 | Cc1c(CC(=O)N[C@@H](C)C(=O)O)c(=O)oc2c(C)c3occ(-c4ccccc4)c3cc12 | inconclusive: 89.1 µM [inhibitor, single point] | 
57 | C/C(=N\NC(=O)CN(c1ccccc1Br)S(C)(=O)=O)c1ccc2c(c1)OCCO2 | inconclusive: 100 µM [inhibitor, partial curve, poor fit] | 
58 | COc1ccc(-c2ccc(SCC(=O)NCc3ccco3)nn2)cc1 | inconclusive: 63.1 µM [inhibitor, partial curve, poor fit] | 
59 | CN1/C(=C\C(=O)COC(=O)Cn2nnc(-c3ccccc3)n2)C(C)(C)c2ccccc21 | inconclusive: 17.8 µM [inhibitor, full curve, poor fit] | 
60 | CCn1c(=O)[nH]c(=O)c2c(N)c(C(=O)c3cc(F)ccc3F)sc21 |  | inactive: 22.3%
61 | CCS(=O)(=O)c1ccc2oc(SCC(=O)c3c(N)n(C4CC4)c(=O)[nH]c3=O)nc2c1 |  | inactive: 9.12%
62 | O=C(CSc1nncn1-c1ccccc1)Nc1ccc(N2CCOCC2)cc1 | inconclusive: 100 µM [inhibitor, single point] | 
63 | Cc1ccc(C(C)C)c(OCC(=O)NNC(=O)C(C(C)C)N2C(=O)c3ccccc3C2=O)c1 (stereo not given) |  | inactive: 2.31%
64 | O=C(OCc1cc(=O)n2nc(-c3cccs3)sc2n1)c1cccc(Cl)c1 | inconclusive: 89.1 µM [inhibitor, single point] | 
65 | CCCCCCSc1cccc(-c2nc3cc(C)ccn3c2NC2CCCCC2)c1 | inconclusive: 3.16 µM [inhibitor, partial curve, poor fit] | 

Arranged by SMILES length (falling): part of the list above.
Row | SMILES | Potency | activity, negative = inhibition
56 | Cc1c(CC(=O)N[C@@H](C)C(=O)O)c(=O)oc2c(C)c3occ(-c4ccccc4)c3cc12 | inconclusive: 89.1 µM [inhibitor, single point] | 
1 | CC1CCCC(C)N1CCCNC(=O)c1ccc2nc(N3CCOCC3)sc2c1 (stereo not given) | inconclusive: 3.55 µM [inhibitor, partial curve, poor fit] | 
46 | O=C(COC(=O)CCC(=O)c1ccccc1)NCCc1ccccc1 | inconclusive: 89.1 µM [inhibitor, partial curve, poor fit] | 
27 | CS(=O)(=O)N1N=C(c2cccs2)CC1c1ccco1 (stereo not given) | inconclusive: 20 µM [inhibitor, single point] | 
